Test system: Bacillus stearothermophilus
Assay: Delvotest P in milk from treated bovine mammary gland quarters
Assay type: cell-based
Details: for no of milkings after last treatment that Delvotest P pos or +/-: 3 at 12 hrs, 4 quarters

micrococcin P1
no of milkings after last treatment that Delvotest P pos or +/- (0.5 mg): 0 | no of milkings after last treatment that Delvotest P pos or +/- (1 mg): 1 | no of milkings after last treatment that Delvotest P pos or +/- (2 mg): 1 | no of milkings after last treatment that Delvotest P pos or +/- (4 mg): 2 | interference with Delvotest P (dose of 0,5 mg): does not interfere with Delvotest P

— patent US6187800A, “Method for the prevention and treatment of mastitis” (Novartis Animal Health U.S., Inc., priority 1997, dated 2001)
